The results in this text go back to patent US20160258939.

The chains behind the UniProt entries cited, without tags or fusion partners. Residues count along the entry.
UniProt P02701, 25-152: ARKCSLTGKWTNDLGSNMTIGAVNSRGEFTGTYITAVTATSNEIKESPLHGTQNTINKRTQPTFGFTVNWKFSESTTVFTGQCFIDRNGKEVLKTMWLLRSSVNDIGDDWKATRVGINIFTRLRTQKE

For at least one entry, the source does not settle the construct or the ends of the probe.

The series addresses Neutravidin (UniProt P02701). Nature of the series: EMSA. The conditions noted are these: PNA GAA*AGT*GAA*AGT, biotin at gamma position via Lys at each *; binding via biotin on PNA; neutravidin-dependent retardation; also nanopore 200 mV; purified native protein; protein details: Pierce/Thermo Scientific. On the technique in general: A gel shift assay detects complexes by their altered migration in electrophoresis.

In the case of GAAAGTGAAAGT, the binding result is “binds”.
